# Test results as given in PubChem BioAssay AID624405 (Broad Institute, 2012).
# Hit rate of the full screen: of about 1,900 compounds, about 250 (13%) were called active. Another 4% or so got no clear call; they are omitted.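 How the source made its calls: active means fitted curve reaches 40% rescue activity at or below the top valid dose, in every test run; inconclusive means test runs disagree, some active and some inactive; inactive means every run misses the threshold or moves the wrong way.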 The entries are a selection whose mix differs from that of the whole data set. Potency and affinity values are given separately.
# Test: suppressors of statin myotoxicity in myotubes, dose response, cell-based, C2C12 myotubes, ATP luminescence, cherry pick (AID 624405);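 further: myotubes are challenged with simvastatin at 10 µM to lower ATP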
# Details: C2C12 myotubes + simvastatin, 48 h; at 19.5 µM (top of the series)
row,SMILES,rescue activity (ATP increase)
1,COC(=O)C1=C(c2ccc(OC)c(OC)c2)C[C@@H]2CC[C@H]1N2C(=O)NCCOc1ccc(OC)cc1,inactive: 6%
2,CCCCC1(CN2CCCC2=O)C(=O)NC(=O)NC1=O,inactive: 20.4%
3,CN(CC1COc2ccccc2O1)c1nc(-c2cccnc2)nc2ccccc12 (stereo unspecified),inactive: -52.4%
4,COc1ccc(C(C)=O)cc1Cc1c(O)[nH]c(=S)[nH]c1=O,inactive: -4.06%
5,O=c1c2ccccc2nc(-c2ccco2)n1-c1ccccn1,inactive: 20.1%
6,Cc1cccc(NP(C)(=O)c2nc3c(s2)CCCC3)c1 (stereo unspecified),inactive: 26.8%
7,CCN1CCN(C(=O)Cc2coc3cc(C)cc(C)c23)CC1,inactive: 2.57%
8,CC12CN3CC(C)(CN(C1)C3c1cccnc1)C2=O (stereo unspecified),inactive: -7.92%
9,CCC1(Oc2ccccc2)C(=O)NC(=O)NC1=O,inactive: -72.5%
10,CC#CP(=O)(OC)C(O)(CF)c1ccccc1 (stereo unspecified),inactive: -37.8%
11,CCN(CC)C(=O)c1ccc2c(c1)C1C=CCC1C(C(=O)O)N2 (stereo unspecified),inactive: 7.72%
12,O=C1C2CCCN2C(c2cccnc2)N1c1nccs1 (stereo unspecified),inactive: 7.38%
13,CCOc1ccc(-n2c(CC)nc3ccccc3c2=O)cc1,inactive: 0.662%
14,CC12CN3CN(C1)CC(c1ccccc1)(C3)C2=O,inactive: -11.5%
15,COC(=O)[C@H]1C[C@@H]1[C@H](NP(=O)(c1ccccc1)c1ccccc1)c1ccccc1,inactive: 14.8%
16,CN1CCN(c2nccc3c2ncn3C)CC1,inactive: -26.9%
17,CCC12CN3CC(CC)(CN(C1)C3c1cccnc1)C2=O (stereo unspecified),inactive: 13.8%
18,CCc1nc2ccccc2c(=O)n1-c1ccc2ccccc2c1,inactive: 18.4%
19,C=COCCn1c(C)c(C(C)=O)c2cc(O)ccc21,inactive: 1.46%
20,O=C1/C(=C\c2ccccc2)C2OCC=C3CN4CCC56c7ccccc7N1C5C2C3CC46 (stereo unspecified),inactive: 26.3%
21,CN1C(=O)C(C2c3ccccc3C(=O)N2Cc2ccccc2)C(=O)N(C)C1=O (stereo unspecified),inactive: 0.403%

# A draw from above in order of heavy-atom count, low to high.
row,SMILES,rescue activity (ATP increase)
10,CC#CP(=O)(OC)C(O)(CF)c1ccccc1 (stereo unspecified),inactive: -37.8%
20,O=C1/C(=C\c2ccccc2)C2OCC=C3CN4CCC56c7ccccc7N1C5C2C3CC46 (stereo unspecified),inactive: 26.3%
1,COC(=O)C1=C(c2ccc(OC)c(OC)c2)C[C@@H]2CC[C@H]1N2C(=O)NCCOc1ccc(OC)cc1,inactive: 6%
